Data: PMC3137613
Results are given in words; binding and its absence hold for the method and conditions named. In cells and extracts the contact can be indirect. Some results given as binding are weak or reduced against the parent protein; the word gives no strength.

Chains of the proteins cited; added tags and fusions are not shown.
UniProt Q92793: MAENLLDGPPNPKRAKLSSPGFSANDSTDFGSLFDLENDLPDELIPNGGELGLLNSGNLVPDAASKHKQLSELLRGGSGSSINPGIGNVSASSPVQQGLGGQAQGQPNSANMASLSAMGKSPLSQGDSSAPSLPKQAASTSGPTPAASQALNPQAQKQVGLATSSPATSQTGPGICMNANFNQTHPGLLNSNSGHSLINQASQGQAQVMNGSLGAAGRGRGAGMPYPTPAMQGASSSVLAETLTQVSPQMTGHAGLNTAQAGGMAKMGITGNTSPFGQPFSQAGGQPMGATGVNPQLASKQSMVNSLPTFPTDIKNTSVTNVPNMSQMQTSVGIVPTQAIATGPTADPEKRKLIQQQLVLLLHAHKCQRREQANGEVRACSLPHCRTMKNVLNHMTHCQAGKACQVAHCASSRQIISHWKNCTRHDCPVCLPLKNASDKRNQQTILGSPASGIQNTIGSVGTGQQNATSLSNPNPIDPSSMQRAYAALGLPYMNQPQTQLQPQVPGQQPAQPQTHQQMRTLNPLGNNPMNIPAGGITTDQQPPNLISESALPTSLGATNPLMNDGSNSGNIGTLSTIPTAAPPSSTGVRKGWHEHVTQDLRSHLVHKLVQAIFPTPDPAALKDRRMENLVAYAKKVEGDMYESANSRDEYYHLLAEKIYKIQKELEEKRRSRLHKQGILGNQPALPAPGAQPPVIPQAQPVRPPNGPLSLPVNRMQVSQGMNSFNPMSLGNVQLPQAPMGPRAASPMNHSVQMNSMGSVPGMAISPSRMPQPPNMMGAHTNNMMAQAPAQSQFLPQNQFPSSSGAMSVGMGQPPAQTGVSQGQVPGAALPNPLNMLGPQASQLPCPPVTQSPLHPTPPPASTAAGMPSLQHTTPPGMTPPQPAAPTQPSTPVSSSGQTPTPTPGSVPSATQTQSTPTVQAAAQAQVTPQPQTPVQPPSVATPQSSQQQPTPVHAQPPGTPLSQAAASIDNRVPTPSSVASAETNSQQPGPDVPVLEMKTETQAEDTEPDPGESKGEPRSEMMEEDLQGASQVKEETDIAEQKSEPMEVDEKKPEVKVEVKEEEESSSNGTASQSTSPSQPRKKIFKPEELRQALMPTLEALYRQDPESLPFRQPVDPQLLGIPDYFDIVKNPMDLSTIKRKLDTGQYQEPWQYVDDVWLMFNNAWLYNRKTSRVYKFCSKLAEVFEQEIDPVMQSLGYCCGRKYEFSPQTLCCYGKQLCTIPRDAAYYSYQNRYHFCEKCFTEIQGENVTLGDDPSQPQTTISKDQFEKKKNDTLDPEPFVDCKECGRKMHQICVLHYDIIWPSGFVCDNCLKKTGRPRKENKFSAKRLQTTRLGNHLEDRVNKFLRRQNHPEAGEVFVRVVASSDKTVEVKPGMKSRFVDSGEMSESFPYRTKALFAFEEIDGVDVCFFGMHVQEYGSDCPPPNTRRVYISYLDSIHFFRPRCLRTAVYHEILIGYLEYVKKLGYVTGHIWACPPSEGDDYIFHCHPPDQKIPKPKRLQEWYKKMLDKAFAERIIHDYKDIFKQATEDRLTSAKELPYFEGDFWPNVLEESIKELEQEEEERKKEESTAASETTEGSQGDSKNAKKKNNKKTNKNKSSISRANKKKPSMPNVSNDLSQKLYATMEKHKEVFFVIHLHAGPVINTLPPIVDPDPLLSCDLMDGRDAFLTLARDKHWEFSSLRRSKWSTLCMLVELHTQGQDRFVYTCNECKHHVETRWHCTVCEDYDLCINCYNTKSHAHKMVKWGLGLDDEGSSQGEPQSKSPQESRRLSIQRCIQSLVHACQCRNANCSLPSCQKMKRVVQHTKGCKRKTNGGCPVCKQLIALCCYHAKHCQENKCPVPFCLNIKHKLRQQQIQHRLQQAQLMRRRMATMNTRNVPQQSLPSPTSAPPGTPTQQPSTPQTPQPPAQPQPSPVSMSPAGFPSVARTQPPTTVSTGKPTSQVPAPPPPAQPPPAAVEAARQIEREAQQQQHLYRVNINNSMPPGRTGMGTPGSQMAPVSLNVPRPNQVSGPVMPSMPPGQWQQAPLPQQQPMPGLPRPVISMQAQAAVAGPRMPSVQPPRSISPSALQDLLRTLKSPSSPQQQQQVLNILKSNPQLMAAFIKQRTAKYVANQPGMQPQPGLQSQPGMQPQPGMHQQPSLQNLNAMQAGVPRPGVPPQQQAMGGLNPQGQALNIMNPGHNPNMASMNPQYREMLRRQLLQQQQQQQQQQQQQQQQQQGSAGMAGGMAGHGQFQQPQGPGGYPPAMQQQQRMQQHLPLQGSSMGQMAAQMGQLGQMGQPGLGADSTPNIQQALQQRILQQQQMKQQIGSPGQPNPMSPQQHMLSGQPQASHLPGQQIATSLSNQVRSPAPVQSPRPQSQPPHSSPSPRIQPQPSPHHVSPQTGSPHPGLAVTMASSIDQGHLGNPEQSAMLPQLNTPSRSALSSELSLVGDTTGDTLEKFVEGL

Substrate: CBP (human (endogenous in HeLa)) (UniProt Q92793)
Test: co-IP; whole cell extracts (RIPA buffer, 1 mg total protein) of HeLa cells transfected with pCMV-NPAT; rabbit anti-CBP overnight at 4°C in 50 mM Tris-HCl pH 7.4, 150 mM NaCl, 0.25% deoxycholic acid, 1% NP-40, 1 mM EDTA, 1 mM NaF; Dynabeads protein A; blot with mouse anti-CBP or mouse anti-NPAT

B1: NPAT (protein, UniProt Q14207 1-1427)
chain: MLLPSDVARLVLGYLQQENLISTCQTFILESSDLKEYAEHCTDEGFIPACLLSLFGKNLTTILNEYVAMKTKETSNNVPAIMSSLWKKLDHTLSQIRSMQSSPRFAGSQRARTRTGIAEIKRQRKLASQTAPASAELLTLPYLSGQFTTPPSTGTQVTRPSGQISDPSRSYFVVVNHSQSQDTVTTGEALNVIPGAQEKKAHASLMSPGRRKSESQRKSTTLSGPHSTIRNFQDPNAFAVEKQMVIENAREKILSNKSLQEKLAENINKFLTSDNNIAQVPKQTDNNPTEPETSIDEFLGLPSEIHMSEEAIQDILEQTESDPAFQALFDLFDYGKTKNNKNISQSISSQPMESNPSIVLADETNLAVKGSFETEESDGQSGQPAFCTSYQNDDPLNALKNSNNHDVLRQEDQENFSQISTSIQKKAFKTAVPTEQKCDIDITFESVPNLNDFNQRGNSNAECNPHCAELYTNQMSTETEMAIGIEKNSLSSNVPSESQLQPDQPDIPITSFVSLGCEANNENLILSGKSSQLLSQDTSLTGKPSKKSQFCENSNDTVKLKINFHGSKSSDSSEVHKSKIEINVLEPVMSQLSNCQDNSCLQSEILPVSVESSHLNVSGQVEIHLGDSLSSTKQPSNDSASVELNHTENEAQASKSENSQEPSSSVKEENTIFLSLGGNANCEKVALTPPEGTPVENSHSLPPESVCSSVGDSHPESQNTDDKPSSNNSAEIDASNIVSLKVIISDDPFVSSDTELTSAVSSINGENLPTIILSSPTKSPTKNAELVKCLSSEETVGAVVYAEVGDSASMEQSLLTFKSEDSAVNNTQNEDGIAFSANVTPCVSKDGGYIQLMPATSTAFGNSNNILIATCVTDPTALGTSVSQSNVVVLPGNSAPMTAQPLPPQLQTPPRSNSVFAVNQAVSPNFSQGSAIIIASPVQPVLQGMVGMIPVSVVGQNGNNFSTPPRQVLHMPLTAPVCNRSIPQFPVPPKSQKAQGLRNKPCIGKQVNNLVDSSGHSVGCHAQKTEVSDKSIATDLGKKSEETTVPFPEESIVPAAKPCHRRVLCFDSTTAPVANTQGPNHKMVSQNKERNAVSFPNLDSPNVSSTLKPPSNNAIKREKEKPPLPKILSKSESAISRHTTIRETQSEKKVSPTEIVLESFHKATANKENELCSDVERQKNPENSKLSIGQQNGGLRSEKSIASLQEMTKKQGTSSNNKNVLSVGTAVKDLKQEQTKSASSLITTEMLQDIQRHSSVSRLADSSDLPVPRTPGSGAGEKHKEEPIDIIKAPSSRRFSEDSSTSKVMVPPVTPDLPACSPASETGSENSVNMAAHTLMILSRAAISRTTSATPLKDNTQQFRASSRSTTKKRKIEELDERERNSRPSSKNLTNSSIPMKKKKIKKKKLPSSFPAGMDVDKFLLSLHYDE
binding: binds
